# The other results are listed elsewhere or left out. Many values rest on one well or one pass, so single values are uncertain.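 The apoptosis fraction was the count of cleaved-PARP antibody-stained nuclei relative to all DNA-stained nuclei, imaged in 1,536-well plates. Screening doses were set so most cells survived, and baseline and induced cleaved-PARP levels vary greatly across cell lines.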
# Key:
# Test in all cases: cleaved PARP positive nuclei fraction relative to DMSO control; melanoma cells; higher = more apoptosis
# Settings in all cases: library dose: low library concentration; 72 h
# [1] = tested on: CBRC034 (line from a melanoma biopsy)
# [2] = tested on: COLO792
# [3] = tested on: COLO800
# [4] = tested on: COLO829
# [5] = tested on: G361
# [6] = tested on: IPC-298
# [7] = tested on: IST-MEL1
# [8] = tested on: LB2518-MEL
# [9] = tested on: LOXIMVI
# [10] = tested on: MEL-HO
# [11] = tested on: MZ2-MEL
# [12] = tested on: MeWo
# [13] = tested on: RPMI7951
# [14] = tested on: RVH-421
# [15] = tested on: SkMel28
# [16] = tested on: SkMel2
# [17] = tested on: SkMel30
# [18] = tested on: UACC62
SMILES,cleaved PARP positive nuclei fraction [1] [%],cleaved PARP positive nuclei fraction [2] [%],cleaved PARP positive nuclei fraction [3] [%],cleaved PARP positive nuclei fraction [4] [%],cleaved PARP positive nuclei fraction [5] [%],cleaved PARP positive nuclei fraction [6] [%],cleaved PARP positive nuclei fraction [7] [%],cleaved PARP positive nuclei fraction [8] [%],cleaved PARP positive nuclei fraction [9] [%],cleaved PARP positive nuclei fraction [10] [%],cleaved PARP positive nuclei fraction [11] [%],cleaved PARP positive nuclei fraction [12] [%],cleaved PARP positive nuclei fraction [13] [%],cleaved PARP positive nuclei fraction [14] [%],cleaved PARP positive nuclei fraction [15] [%],cleaved PARP positive nuclei fraction [16] [%],cleaved PARP positive nuclei fraction [17] [%],cleaved PARP positive nuclei fraction [18] [%]
"N#CC[C@H](C1CCCC1)n1cc(-c2ncnc3[nH]ccc23)cn1 [ruxolitinib] + CNC(=O)c1cc(Oc2ccc(NC(=O)Nc3ccc(Cl)c(C(F)(F)F)c3)cc2)ccn1 [sorafenib] (first compound 1 µM, partner dose 0.4 µM)",210,101,29,143,163,62.2,168,124,83.8,89.2,23.9,135,48.1,88.7,49,95.6,31.2,48.4
"N#CC[C@H](C1CCCC1)n1cc(-c2ncnc3[nH]ccc23)cn1 [ruxolitinib] + Cn1cnc2c(F)c(Nc3ccc(Br)cc3Cl)c(C(=O)NOCCO)cc21 [selumetinib] (first compound 1 µM, partner dose 0.015 µM)",179,75.5,64.3,52.4,72.7,93.1,85.5,128,106,159,228,155,88,164,66.5,119,40.8,90.4
"O=c1[nH]nc(Sc2ncc([N+](=O)[O-])s2)n1-c1ccc2c(c1)OCCO2 + Cn1c(Nc2ccc(C(F)(F)F)cc2)nc2cc(Oc3ccnc(-c4ncc(C(F)(F)F)[nH]4)c3)ccc21 [CHIR265] (first compound 0.2 µM, partner dose 0.08 µM)",168,200,110,116,173,173,66,156,89.8,143,79,169,207,433,192,116,198,194
"Cc1ccc(Nc2nccc(N(C)c3ccc4c(C)n(C)nc4c3)n2)cc1S(N)(=O)=O [Pazopanib] + Nc1ncn([C@H]2C[C@H](O)[C@@H](CO)O2)c(=O)n1 [decitabine] (first compound 0.4 µM, partner dose 0.1 µM)",52,64.5,117,89.8,93.3,61.3,94.6,230,70.2,217,180,63.2,135,43.1,92.9,49.1,36.9,158
"CCCCCCCCCCCCCCCCCCOP(=O)([O-])OC1CC[N+](C)(C)CC1 [Perifosine] + O=C(O)c1ccc2c(c1)nc(Nc1cccc(Cl)c1)c1ccncc12 [CX4945] (first compound 0.4 µM, partner dose 0.4 µM)",142,120,114,95.3,116,44.8,215,75.2,32.5,110,109,256,592,53.7,148,101,120,106
"CCCCCCCCCCCCCCCCCCOP(=O)([O-])OC1CC[N+](C)(C)CC1 [Perifosine] + Cc1ccc(Nc2nccc(N(C)c3ccc4c(C)n(C)nc4c3)n2)cc1S(N)(=O)=O [Pazopanib] (first compound 0.4 µM, partner dose 0.4 µM)",77.5,135,100,158,109,51.5,87.6,95.4,116,156,68.8,68.5,280,67.5,77.4,49.2,44.7,82.3
"CC[C@]1(O)C[C@H]2CN(CCc3c([nH]c4ccccc34)[C@@](C(=O)OC)(c3cc4c(cc3OC)N(C=O)[C@H]3[C@@](O)(C(=O)OC)[C@H](OC(C)=O)[C@]5(CC)C=CCN6CC[C@]43[C@@H]65)C2)C1 [vincristine] + Nc1ccn([C@@H]2O[C@H](CO)[C@@H](O)C2(F)F)c(=O)n1 [gemcitabine] (first compound 0.0001 µM, partner dose 0.0004 µM)",334,111,83.7,85.8,130,90.3,314,55.2,186,134,36.8,104,76.8,78.4,49.5,70.2,152,562
"O=C(Nc1cc(C(F)(F)F)cc(C(F)(F)F)c1)c1cc(Cl)ccc1O + NC(=O)c1ccc(N(C(N)=O)c2c(F)cccc2F)nc1-c1ccc(F)cc1F [VX702] (first compound 0.016 µM, partner dose 0.4 µM)",27.8,74.3,71.6,126,118,133,62.9,43.2,102,61.2,25.9,10.3,85.5,203,219,40.3,63.6,101

# — the supplement of paper PMC4604168 (melanoma cell lines)
